Source: PubChem BioAssay AID504791 (Drosophila RNAi Screening Center, 2011)
Purpose: 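Genes whose knock-down strengthens or weakens small-RNA reporter silencing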 (primary screen). System: Drosophila S2-derived reporter cells. Reagent: long dsRNA against Drosophila genes, about 150-250 ng dsRNA per well (siRNA assay); about 80-120 ng (miRNA assay). Time to read-out: about 5 days (siRNA assay); about 4 days (miRNA assay). Challenge: copper sulfate induction of reporters: 25 µM (siRNA assay); 200 mM stated (miRNA assay), 1-2 days before reading. Read-out: 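Dual luciferase assay: Renilla to firefly signal ratio in each well, scaled to the mean ratio of its plate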. Units: stable assay Renilla, run 1 in luminescence; stable assay firefly, run 1 in luminescence. Rule for the call: 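a well was a first-pass pick when its plate-scaled ratio rose above 1.5 (siRNA assay) or 1.6 (miRNA assay), or dropped below 0.6; a gene counted only if two separate dsRNAs agreed on retest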.
The deposit covers about 23,000 reagents; shown is a random part of those with a known target gene and a result. Of all reagents, 199 (0.86%) were called active. 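Plate-scaled ratios behind the calls are not deposited; printed light signals are raw; many rows marked increased or decreased are still called inactive.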 A number with no mark means an inactive call. The numbers tell different reagents against one gene apart. Not given: the direction of the score.

Cen — stable assay Renilla, run 1: 7538; stable assay firefly, run 1: 6.93e5
Ebp — miRNA reporter change: reporter ratio lowered past the hit cutoff; stable assay Renilla, run 1: 8710; stable assay firefly, run 1: 9.63e5
Nulp1 — stable assay Renilla, run 1: 7116; stable assay firefly, run 1: 3.20e5
CG10560 — stable assay Renilla, run 1: 7298; stable assay firefly, run 1: 3.37e5
CG31142 — stable assay Renilla, run 1: 4992; stable assay firefly, run 1: 4.16e5
CG15394 — stable assay Renilla, run 1: 7139; stable assay firefly, run 1: 3.05e5
CG3568 — stable assay Renilla, run 1: 6135; stable assay firefly, run 1: 3.20e5
Eig71Ef — stable assay Renilla, run 1: 7374; stable assay firefly, run 1: 3.78e5
Peritrophin-15b — stable assay Renilla, run 1: 6691; stable assay firefly, run 1: 3.99e5
CG6230 — stable assay Renilla, run 1: 20491; stable assay firefly, run 1: 7.25e5
CG3611 — stable assay Renilla, run 1: 5911; stable assay firefly, run 1: 3.62e5
Fhos #1 — stable assay Renilla, run 1: 4531; stable assay firefly, run 1: 3.34e5
Fhos #2 — stable assay Renilla, run 1: 9351; stable assay firefly, run 1: 4.25e5
Fhos #3 — stable assay Renilla, run 1: 7719; stable assay firefly, run 1: 3.71e5
Fhos #4 — stable assay Renilla, run 1: 5308; stable assay firefly, run 1: 3.03e5
